According to article PMC7555452:
The exact form of at least one protein or probe is not confirmed. A negative result means that nothing was seen under these conditions. At least one verdict rests on a figure or table, not on a statement of the authors.

Protein sequences, listed by entry. Tags and fused reporters are not part of them. Lines headed by an entry give the natural chain unless they say otherwise; changes in a name come on top.
UniProt P0A850: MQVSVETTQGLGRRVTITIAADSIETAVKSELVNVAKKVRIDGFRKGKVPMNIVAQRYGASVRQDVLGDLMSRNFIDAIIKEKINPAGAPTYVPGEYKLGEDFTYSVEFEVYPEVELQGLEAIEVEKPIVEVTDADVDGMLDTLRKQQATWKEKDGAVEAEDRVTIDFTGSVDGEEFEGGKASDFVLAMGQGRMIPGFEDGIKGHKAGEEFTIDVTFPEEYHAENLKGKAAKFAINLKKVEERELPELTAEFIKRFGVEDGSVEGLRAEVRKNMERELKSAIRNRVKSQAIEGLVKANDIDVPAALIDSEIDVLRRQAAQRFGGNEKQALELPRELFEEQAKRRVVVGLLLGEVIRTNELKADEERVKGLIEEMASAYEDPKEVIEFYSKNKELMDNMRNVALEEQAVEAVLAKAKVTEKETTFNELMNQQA

Target: His-tag-Trigger factor (UniProt P0A850)
Experiment: EMSA
Conditions: tag-only control; m6A at position 9; 10 mM Tris-HCl pH 8.0, 150 mM NaCl, 1.0 mM EDTA, 10% glycerol; 5.0 pmol RNA in 20 uL, on ice 30 min; 6% native PAGE, 0.25x TBE, 4 °C; recombinant protein; protein details: His; label: 5'-fluorescein

Q: Does GAAUCCGAACUAGUUCU [SOS3 RNA m6A] bind?
A: no binding
